Experimental data: US10376603B2, “Engineered fluorinated biomaterials” (New York University, priority 2015, dated 2019)

How the values were obtained:
[1] = 19F NMR inversion recovery and CPMG relaxation; details: 19F NMR 11.7 Tesla
Description: Nuclear Magnetic Resonance (NMR) experiments were carried out on a 500 MHz (11.7 Tesla) Bruker Avance II instrument equipped with a 5 mm room-temperature BBFO SMART probe and Topspin 3.2 software. For variable temperature (27° C., 37° C. and 42° C.) ^19F/^1H decoupling experiments, CE2-RGD-TFL (1.2 mg/mL) was subjected to 15000 scans with a sweep width of 76.62 ppm, acquisition time of 0.4547 seconds, relaxation time of 1.0 second, pulse length of 15 μseconds and referenced with 0.01% para-fluorophenylalanine. Both the inversion recovery and Car-Purcell-Meiboom-Gill (CPMG) ^19F NMR experiments were performed on CE2-RGD-TFL (0.5 mg/mL, 0.6 mg/mL, 0.75 mg/mL, 0.9 mg/mL) at varying temperatures (22° C., 27° C., 32° C., 37° C.). The relaxation times (T1 and T2) were determined by using Topspin 3.2 software.

[2] = 2D Gradient Echo MRI of phantoms; details: approximately 5 mg/mL phantom, 7T
Description: Magnetic Resonance imaging (MRI) experiments were carried using a 2D Gradient echo (GE) MRI. For GE experiments, a solution of approximately 5 mg/mL CE2-RGD-TFL (total volume ˜500 μL) (FIG. 8) and a negative control volume of water were placed in separate 5 mm NMR tubes and subjected to scanning in a home-made coil. A broadband tuning and matching solenoid coil was developed to cover both Larmor frequencies of ^1H proton (300.16 MHz) and ^19F (282.4 MHz) at 7T. The solenoid coil was made from silver plated copped wire wrapped tightly around a plastic holder that can hold up to 2 glass tubes (OD 6 mm). The coil was first tuned and matched for ^1H scan that provide more signal and can be used as reference for ^19F scan. A 2D Gradient Echo (GE) sequence was used with 50 mm slice thickness (covering the whole length of the tube) and 300 μm in-plane (matrix size 64×64, TE 2.2 ms, TR 30 ms, scanning time 2 seconds). The coil was then tuned to ^19F frequency and scanned using the same sequence with lower resolution (600 μm in-plane, matrix size 32×32, scanning time 14 hours

B1: CE2-RGD-TFL: fluorinated protein block copolymer, SEQ ID NO:18: COMPcc domain flanked by RGD linkers plus elastin-like domain; all 11 leucines as 5,5,5-trifluoroleucine (protein)
chain: MRGSHHHHHHGSACELAARGDATATATATAACGDLAPQMLRELQETNAALQDVRELLRQQVKEITFLKNTVMESDASGLQAARGDATATATATAVDKPIAASAVPGVGVPGVGVPGFGVPGVGVPGVGVPGVGVPGVGVPGFGVPGVGVPGVGVPLEGSGTGAKLN
modifications: all leucines as 5,5,5-trifluoroleucine
notes: all 11 leucines as 5,5,5-trifluoroleucine
r1 ([1]; Conc. 0.50 mg/mL): −9.06E−05 | r1 ([1]; Conc. 0.60 mg/mL): −3.15E−05 | r1 ([1]; Conc. 0.75 mg/mL): −2.82E−05 | r1 ([1]; Conc. 0.90 mg/mL): −2.81E−05 | MRI signal, instrument tuned to 1H radiofrequency [2]: positive signals | MRI signal, instrument tuned to 19F radio frequency ([2]; 14 hours scan): positive signal
